These are yes or no findings as the source states them, for the method shown. Binding seen in cells or lysates may run through a third protein. Some entries that bind do so weakly or less than the wild type.
What was measured:
[1] = target: N-terminal 3xFLAG tagged RPL-22 expressed from tissue-specific single-copy SKI TRIP cassettes (rpl-22 cDNA) (C. elegans) (UniProt P52819); experiment: co-IP
[2] = target: N-terminal 3xFLAG tagged RPL-22 expressed from the endogenous rpl-22 locus, allele rpl-22(wbm58) (C. elegans) (UniProt P52819); experiment: co-IP

Sequences of proteins named here, by UniProt entry; tags and fusion partners are left off.
UniProt P52819: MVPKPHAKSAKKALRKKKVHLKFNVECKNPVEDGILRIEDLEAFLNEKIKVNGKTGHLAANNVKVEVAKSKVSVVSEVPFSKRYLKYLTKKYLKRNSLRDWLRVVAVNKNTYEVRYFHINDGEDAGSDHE

B1: RPS-6, a protein of the small ribosomal subunit (protein, UniProt Q9NEN6 1-246)
chain: MRLNFAYPATGLQKSFEVDEEKKLRLFFEKRMSQEVAIDALGDEWKGYVVRIGGGNDKQGFPMKQGILTNGRVRLLLKKGQSCYRERKNGERKRKSVRGCIVDANMSALSLVIVKKGDGEIEGLTDSVLPRKLGPKRASKIRKLFNLTKHDDVTKYVITHDKTFPDGVTKTIAPKIQRLITPARIARKKYLLRQKRNQKIKMRDDAAAYHKLLAKYSKEEHDAKIARRRSSASHHSESEVKKTSKK
[1]
  binding: binds
[2]
  binding: binds

— paper doi:10.1101/2021.12.22.473890
